Data: patent US20260256792A1, “TREATMENT OF CHRONIC SPONTANEOUS URTICARIA BY ADMINISTERING (R)-2-[3-[4-AMINO-3-(2-FLUORO-4-PHENOXY-PHENYL)PYRAZOLO[3,4-D]PYRIMIDIN-1-YL]PIPERIDINE-1-CARBONYL]-4-METHYL-4-[4-(OXETAN-3-YL)PIPERAZIN-1-YL]PENT-2-ENENITRILE” (priority 2023, published 2026)
Further values from the same series stand in other lists.

Test system: angioedema in CSU patients
Test: Phase 2 CSU study: angioedema activity score over 7 days (AAS7)
Type: in vivo, human
Conditions: omalizumab-naïve, angioedema at baseline
Excerpt: The study comprises a 12 week, randomized, double-blind, placebo-controlled, multi-center, dose-ranging efficacy and safety phase, followed by a 40 week open label extension (OLE) phase (see FIG. 1). The study consists of three phases and an optional OLE phase. […] The weekly angioedema activity score (AAS7) was proposed as a tertiary endpoint. […] Patients were to complete the AAS using the e-diary. The e-diary was to be used once daily on the same time of each day recording of participant's answers to the angioedema activity score over 7 days (AAS7) questionnaire.

CC(C)(C=C(C#N)C(=O)N1CCC[C@@H](n2nc(-c3ccc(Oc4ccccc4)cc3F)c3c(N)ncnc32)C1)N1CCN(C2COC2)CC1 [rilzabrutinib, (R)-2-[3-[4-amino-3-(2-fluoro-4-phenoxy-phenyl)pyrazolo[3,4-d]pyrimidin-1-yl]piperidine-1-carbonyl]-4-methyl-4-[4-(oxetan-3-yl)piperazin-1-yl]pent-2-enenitrile]
AAS7 Change difference for rilzabrutinib vs. placebo LS Mean (95% CI) (400 mg BID, Week 2): −7.43 (−19.15, 4.29)
AAS7 Change from baseline LS Mean (SE) (400 mg BID, Week 2): −26.11 (4.50)
AAS7 Change difference for rilzabrutinib vs. placebo LS Mean (95% CI) (400 mg BID, Week 3): −11.92 (−24.12, 0.27)
AAS7 Change from baseline LS Mean (SE) (400 mg BID, Week 3): −35.08 (4.66)
AAS7 Change difference for rilzabrutinib vs. placebo LS Mean (95% CI) (400 mg BID, Week 4): −15.05 (−26.84, −3.27)
AAS7 Change from baseline LS Mean (SE) (400 mg BID, Week 4): −34.90 (4.47)
AAS7 Change difference for rilzabrutinib vs. placebo LS Mean (95% CI) (400 mg BID, Week 5): −4.63 (−16.28, 7.02)
AAS7 Change from baseline LS Mean (SE) (400 mg BID, Week 5): −35.28 (4.45)
AAS7 Change difference for rilzabrutinib vs. placebo LS Mean (95% CI) (400 mg BID, Week 6): −8.84 (−21.64, 3.95)
AAS7 Change from baseline LS Mean (SE) (400 mg BID, Week 6): −36.17 (4.80)
AAS7 Change difference for rilzabrutinib vs. placebo LS Mean (95% CI) (400 mg BID, Week 7): −8.40 (−20.39, 3.59)
AAS7 Change from baseline LS Mean (SE) (400 mg BID, Week 7): −37.12 (4.53)
AAS7 Change difference for rilzabrutinib vs. placebo LS Mean (95% CI) (400 mg BID, Week 8): −13.38 (−25.33, −1.44)
AAS7 Change from baseline LS Mean (SE) (400 mg BID, Week 8): −41.30 (4.49)
AAS7 % Change difference for rilzabrutinib vs. placebo LS Mean (95% CI) (400 mg BID, Week 9): −27.62 (−59.82, 4.58) %
AAS7 Change difference for rilzabrutinib vs. placebo LS Mean (95% CI) (400 mg BID, Week 9): −12.36 (−23.79, −0.92)
AAS7 Change from baseline LS Mean (SE) (400 mg BID, Week 9): −40.15 (4.33)
AAS7 % Change difference for rilzabrutinib vs. placebo LS Mean (95% CI) (400 mg BID, Week 10): −16.22 (−60.13, 27.69) %
AAS7 Change difference for rilzabrutinib vs. placebo LS Mean (95% CI) (400 mg BID, Week 10): −10.43 (−22.69, 1.83)
AAS7 Change from baseline LS Mean (SE) (400 mg BID, Week 10): −38.01 (4.62)
AAS7 % Change difference for rilzabrutinib vs. placebo LS Mean (95% CI) (400 mg BID, Week 11): −24.83 (−55.17, 5.52) %
AAS7 Change difference for rilzabrutinib vs. placebo LS Mean (95% CI) (400 mg BID, Week 11): −9.58 (−21.83, 2.67)
AAS7 Change from baseline LS Mean (SE) (400 mg BID, Week 11): −41.52 (4.63)
AAS7 % Change difference for rilzabrutinib vs. placebo LS Mean (95% CI) (400 mg BID, Week 12): −24.94 (−53.17, 3.29) %
AAS7 % Change from baseline LS Mean (SE) (400 mg BID, Week 12): −86.30 (10.67) %
AAS7 Change difference for rilzabrutinib vs. placebo LS Mean (95% CI) (400 mg QPM, Week 2): −2.53 (−13.99, 8.94)
AAS7 Change from baseline LS Mean (SE) (400 mg QPM, Week 2): −21.21 (4.21)
AAS7 Change difference for rilzabrutinib vs. placebo LS Mean (95% CI) (400 mg QPM, Week 3): 1.31 (−10.66, 13.27)
AAS7 Change from baseline LS Mean (SE) (400 mg QPM, Week 3): −21.85 (4.38)
AAS7 Change difference for rilzabrutinib vs. placebo LS Mean (95% CI) (400 mg QPM, Week 4): −5.31 (−16.86, 6.24)
AAS7 Change from baseline LS Mean (SE) (400 mg QPM, Week 4): −25.16 (4.19)
AAS7 Change difference for rilzabrutinib vs. placebo LS Mean (95% CI) (400 mg QPM, Week 5): 2.08 (−9.37, 13.52)
AAS7 Change from baseline LS Mean (SE) (400 mg QPM, Week 5): −28.57 (4.18)
AAS7 Change difference for rilzabrutinib vs. placebo LS Mean (95% CI) (400 mg QPM, Week 6): 1.87 (−10.66, 14.40)
AAS7 Change from baseline LS Mean (SE) (400 mg QPM, Week 6): −25.45 (4.55)
AAS7 Change difference for rilzabrutinib vs. placebo LS Mean (95% CI) (400 mg QPM, Week 7): 6.71 (−5.27, 18.69)
AAS7 Change from baseline LS Mean (SE) (400 mg QPM, Week 7): −22.00 (4.38)
AAS7 Change difference for rilzabrutinib vs. placebo LS Mean (95% CI) (400 mg QPM, Week 8): −1.84 (−13.56, 9.89)
AAS7 Change from baseline LS Mean (SE) (400 mg QPM, Week 8): −29.76 (4.29)
AAS7 % Change difference for rilzabrutinib vs. placebo LS Mean (95% CI) (400 mg QPM, Week 9): −0.07 (−31.59, 31.45) %
AAS7 Change difference for rilzabrutinib vs. placebo LS Mean (95% CI) (400 mg QPM, Week 9): 2.00 (−9.20, 13.21)
AAS7 Change from baseline LS Mean (SE) (400 mg QPM, Week 9): −25.79 (4.12)
AAS7 % Change difference for rilzabrutinib vs. placebo LS Mean (95% CI) (400 mg QPM, Week 10): −4.23 (−47.40, 38.95) %
AAS7 % Change from baseline LS Mean (SE) (400 mg QPM, Week 10): −48.11 (15.70) %
AAS7 Change difference for rilzabrutinib vs. placebo LS Mean (95% CI) (400 mg QPM, Week 10): 0.84 (−10.97, 12.66)
AAS7 Change from baseline LS Mean (SE) (400 mg QPM, Week 10): −26.74 (4.35)
AAS7 % Change difference for rilzabrutinib vs. placebo LS Mean (95% CI) (400 mg QPM, Week 11): 6.27 (−23.29, 35.83) %
AAS7 % Change from baseline LS Mean (SE) (400 mg QPM, Week 11): −52.05 (10.68) %
AAS7 Change difference for rilzabrutinib vs. placebo LS Mean (95% CI) (400 mg QPM, Week 11): 4.36 (−7.60, 16.33)
AAS7 Change from baseline LS Mean (SE) (400 mg QPM, Week 11): −27.59 (4.31)
AAS7 % Change difference for rilzabrutinib vs. placebo LS Mean (95% CI) (400 mg QPM, Week 12): 8.71 (−19.46, 36.88) %
AAS7 % Change from baseline LS Mean (SE) (400 mg QPM, Week 12): −52.66 (10.25) %
AAS7 Change difference for rilzabrutinib vs. placebo LS Mean (95% CI) (400 mg TID, Week 2): −13.79 (−25.99, −1.60)
AAS7 Change from baseline LS Mean (SE) (400 mg TID, Week 2): −32.47 (4.53)
AAS7 Change difference for rilzabrutinib vs. placebo LS Mean (95% CI) (400 mg TID, Week 3): −13.01 (−25.71, −0.30)
AAS7 Change from baseline LS Mean (SE) (400 mg TID, Week 3): −36.16 (4.71)
AAS7 Change difference for rilzabrutinib vs. placebo LS Mean (95% CI) (400 mg TID, Week 4): −19.05 (−31.29, −6.81)
AAS7 Change from baseline LS Mean (SE) (400 mg TID, Week 4): −38.89 (4.51)
AAS7 Change difference for rilzabrutinib vs. placebo LS Mean (95% CI) (400 mg TID, Week 5): −8.94 (−21.03, 3.15)
AAS7 Change from baseline LS Mean (SE) (400 mg TID, Week 5): −39.59 (4.46)
AAS7 Change difference for rilzabrutinib vs. placebo LS Mean (95% CI) (400 mg TID, Week 6): −10.77 (−24.18, 2.64)
AAS7 Change from baseline LS Mean (SE) (400 mg TID, Week 6): −38.09 (4.88)
AAS7 Change difference for rilzabrutinib vs. placebo LS Mean (95% CI) (400 mg TID, Week 7): −8.96 (−21.57, 3.65)
AAS7 Change from baseline LS Mean (SE) (400 mg TID, Week 7): −37.68 (4.70)
AAS7 Change from baseline LS Mean (SE) (400 mg TID, Week 8): −39.04 (4.68)
AAS7 Change difference for rilzabrutinib vs. placebo LS Mean (95% CI) (400 mg TID, Week 9): −15.14 (−27.06, −3.23)
AAS7 Change from baseline LS Mean (SE) (400 mg TID, Week 9): −42.94 (4.44)
AAS7 % Change difference for rilzabrutinib vs. placebo LS Mean (95% CI) (400 mg TID, Week 10): −46.10 (−91.54, −0.67) %
AAS7 Change difference for rilzabrutinib vs. placebo LS Mean (95% CI) (400 mg TID, Week 10): −17.05 (−29.81, −4.29)
AAS7 Change from baseline LS Mean (SE) (400 mg TID, Week 10): −44.63 (4.75)
AAS7 % Change difference for rilzabrutinib vs. placebo LS Mean (95% CI) (400 mg TID, Week 11): −20.16 (−50.91, 10.58) %
AAS7 % Change from baseline LS Mean (SE) (400 mg TID, Week 11): −78.48 (11.38) %
AAS7 Change difference for rilzabrutinib vs. placebo LS Mean (95% CI) (400 mg TID, Week 11): −9.39 (−21.92, 3.13)
AAS7 Change from baseline LS Mean (SE) (400 mg TID, Week 11): −41.34 (4.63)
AAS7 % Change difference for rilzabrutinib vs. placebo LS Mean (95% CI) (400 mg TID, Week 12): −23.26 (−52.37, 5.85) %
AAS7 % Change from baseline LS Mean (SE) (400 mg TID, Week 12): −84.63 (10.83) %
AAS7 Change difference for rilzabrutinib vs. placebo LS Mean (95% CI) (400 mg TID, Week 12): −10.65 (−22.56, 1.26)
AAS7 Change from baseline LS Mean (SE) (400 mg TID, Week 12): −44.04 (4.42)
